From PMC7475178, “Dynamic regulation of anthocyanin biosynthesis at different light intensities by the BT2-TCP46-MYB1 module in apple”

Tested on: MdMYB1-HIS + MdTCP46-HIS
Experiment: EMSA
Conditions: MdTCP46-HIS added, binding stronger than MdMYB1 alone; Proteins and biotin probes mixed in binding buffer for 25 min, acrylamide gel; pH and temperature not stated; recombinant protein; protein details: His (pET32a),His (pET32a); label: biotin

Row | Sequence | binding result
1 | ACCTTCCCGTCAGTTATTGCAGGTGG (double strand) [MdUF3GT-Probe] | binds
2 | CGTGCGTCAACCGTTAGGAAAGCACG (double strand) [MdDFR-Probe] | binds

Construct, isoform or probe ends are uncertain for at least one entry.
